# Laboratory results from PubChem BioAssay AID540256 (National Center for Advancing Translational Sciences (NCATS), 2011).
# About 3,700 (1.2%) of roughly 300,000 compounds were called active. Inconclusive means that the source gave no clear call. Such entries were picked first, then a sample of the others. The call rests on the fitted dose curve; tested in HEK293 cells. Potencies of inconclusive entries are doubtful fits and often do not repeat.
# Assay: qHTS for Inhibitors of binding or entry into cells for Lassa Virus; further: nearly all actives have a fitted effect of over 50% in size
# Details: Lassa virus pseudotype entry inhibition, cell reporter; activity change, negative = inhibition: at 37.9 µM (top of the series) unless noted
# On the % scale 0 is the no-effect control and ±100 the full control effect; potency means the concentration at half of the fitted maximal effect.
Compound,Potency,"activity change, negative = inhibition"
O=C(c1cc(-c2ccc(Cl)cc2Cl)on1)N1CCOCC1,"inconclusive: 8.2 µM [inhibitor, partial curve, poor fit]",–
Cc1cc(Cl)cc2sc(=S)[nH]c12,"inconclusive: 3.16 µM [activator, full curve, poor fit]",–
Cc1ccc(O)c(C(CC(=O)NCC2(c3ccccc3)CCCC2)c2ccccc2)c1 (stereo not given),"inconclusive: 1.78 µM [inhibitor, full curve, poor fit]",–
Clc1ccc(N/N=C/c2cccnc2)cc1,"inconclusive: 1.58 µM [activator, partial curve, poor fit]",–
Cc1ccc2nc(C(Cl)(Cl)Cl)nc(N/N=C/c3ccncc3)c2c1,–,inactive: -4.05%
O=C(CN(C(=O)CCC(=O)Nc1ccccn1)c1cccc(F)c1)NCc1ccc2c(c1)OCO2,"inconclusive: 5.62 µM [inhibitor, single point]",–
COC(=O)c1c(C)oc2ccc(N(C(=O)c3ccncc3)S(=O)(=O)c3ccc(C)cc3C)cc12,"inconclusive: 15.8 µM [inhibitor, partial curve]",–
O=C(O)c1cccc(COc2ccccc2Cl)c1,active: 0.517 µM,–
CN1CCN(CC(=O)Nc2ccc(Cl)cc2Cl)CC1,–,inactive: 0.15%
N#C/C(=C\c1ccncc1)c1nc2ccccc2o1,–,inactive: -29.8%
O=c1c2ccccc2[nH]c2ccc(F)cc12,–,inactive: 6.81%
CC(=O)Nc1ccc(S(=O)(=O)N(Cc2ccccc2)C(C)C)cc1,"inconclusive: 8.2 µM [inhibitor, partial curve, poor fit]",–
CCS(=O)(=O)Nc1cccc(C2=NN(S(=O)(=O)c3ccccc3)C(c3ccco3)C2)c1 (stereo not given),"inconclusive: 14.1 µM [inhibitor, single point]",–
O=c1oc2cc(Cl)ccc2n1CSc1nc2ccccc2s1,"inconclusive: 6.31 µM [activator, single point]",–
COc1ccc(OC)c(NC(=O)Cc2coc3ccc(C(C)C)cc23)c1,–,inactive: -4.75% [at 46.1 µM]
CCN(CC)c1ccc(NC(=O)c2ccco2)c(C)c1,"inconclusive: 6.51 µM [activator, single point]",–
Cc1cc(C)c2nc(-c3ccncc3)cc(C(=O)N3CCN(Cc4ccccc4Cl)CC3)c2c1,"inconclusive: 14.1 µM [inhibitor, single point]",–
N#Cc1ccc(COC(=O)c2ccc(N3CCCC3)c([N+](=O)[O-])c2)cc1,–,inactive: 2.67%
Cc1ccc(-n2c(SCC(=O)N/N=C/c3c(C)nn(-c4ccccc4)c3C)nc3ccccc3c2=O)cc1,–,inactive: -21.8%
Cc1cccn2c(=O)c3c(nc12)N1CCC(Cc2ccccc2)CC1C1(C3)C(=O)N(C)C(=O)N(C)C1=O (stereo not given),"inconclusive: 25.9 µM [inhibitor, single point]",–

# Exported bar-delimited: part of the list above
Compound | Potency | activity change, negative = inhibition
O=C(O)c1cccc(COc2ccccc2Cl)c1 | active: 0.517 µM | –
CN1CCN(CC(=O)Nc2ccc(Cl)cc2Cl)CC1 | – | inactive: 0.15%
